Drawing on patent publication US20220089746A1 (INSTITUT NATIONAL DE LA RECHERCHE SCIENTIFIQUE, published 2022), this text covers binding for one molecule.

Protein sequences, listed by entry. Tags and fused reporters are not part of them.
UniProt P47929: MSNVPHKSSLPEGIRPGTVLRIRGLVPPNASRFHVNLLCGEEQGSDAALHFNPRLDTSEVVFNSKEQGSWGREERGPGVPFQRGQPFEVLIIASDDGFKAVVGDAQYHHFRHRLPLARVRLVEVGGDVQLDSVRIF

Results are given in words; binding and its absence hold for the method and conditions named. Some binding calls cover weakened binding; strength is not graded here.

This assay concerns the target recombinant human galectin-7 (human, UniProt P47929 1-136). In words: ELISA of the selected nanobody clone on hGAL-7 with His-tagged MBP as control; y axis 'ELISA Ratio'; no concentration given. Background: An ELISA detects its analyte on a solid surface through an enzyme-linked reagent.

B1: Nanobody 219_A01 (VHH)
VHH: EVQLQASGGGFVQPGGSLRLSCAASGGGYDWDAMGWFRQAPGKEREFVSAISSNNNGSRYYADSVKGRFTISRDNSKNTVYLQMNSLRAEDTATYYCAADQYWGQGTQVTVSS
notes: 169 aa with the tag, so CDR3 has 3 residues
On to B1, for which the binding entry is “binds”.
